Experimental data: the supplement of paper PMC10849652
This is one part of the list.

Amino acid sequences for entries named in this document (tags omitted). A change or cut given only in a name is not applied to a line headed by its entry.
UniProt P30414: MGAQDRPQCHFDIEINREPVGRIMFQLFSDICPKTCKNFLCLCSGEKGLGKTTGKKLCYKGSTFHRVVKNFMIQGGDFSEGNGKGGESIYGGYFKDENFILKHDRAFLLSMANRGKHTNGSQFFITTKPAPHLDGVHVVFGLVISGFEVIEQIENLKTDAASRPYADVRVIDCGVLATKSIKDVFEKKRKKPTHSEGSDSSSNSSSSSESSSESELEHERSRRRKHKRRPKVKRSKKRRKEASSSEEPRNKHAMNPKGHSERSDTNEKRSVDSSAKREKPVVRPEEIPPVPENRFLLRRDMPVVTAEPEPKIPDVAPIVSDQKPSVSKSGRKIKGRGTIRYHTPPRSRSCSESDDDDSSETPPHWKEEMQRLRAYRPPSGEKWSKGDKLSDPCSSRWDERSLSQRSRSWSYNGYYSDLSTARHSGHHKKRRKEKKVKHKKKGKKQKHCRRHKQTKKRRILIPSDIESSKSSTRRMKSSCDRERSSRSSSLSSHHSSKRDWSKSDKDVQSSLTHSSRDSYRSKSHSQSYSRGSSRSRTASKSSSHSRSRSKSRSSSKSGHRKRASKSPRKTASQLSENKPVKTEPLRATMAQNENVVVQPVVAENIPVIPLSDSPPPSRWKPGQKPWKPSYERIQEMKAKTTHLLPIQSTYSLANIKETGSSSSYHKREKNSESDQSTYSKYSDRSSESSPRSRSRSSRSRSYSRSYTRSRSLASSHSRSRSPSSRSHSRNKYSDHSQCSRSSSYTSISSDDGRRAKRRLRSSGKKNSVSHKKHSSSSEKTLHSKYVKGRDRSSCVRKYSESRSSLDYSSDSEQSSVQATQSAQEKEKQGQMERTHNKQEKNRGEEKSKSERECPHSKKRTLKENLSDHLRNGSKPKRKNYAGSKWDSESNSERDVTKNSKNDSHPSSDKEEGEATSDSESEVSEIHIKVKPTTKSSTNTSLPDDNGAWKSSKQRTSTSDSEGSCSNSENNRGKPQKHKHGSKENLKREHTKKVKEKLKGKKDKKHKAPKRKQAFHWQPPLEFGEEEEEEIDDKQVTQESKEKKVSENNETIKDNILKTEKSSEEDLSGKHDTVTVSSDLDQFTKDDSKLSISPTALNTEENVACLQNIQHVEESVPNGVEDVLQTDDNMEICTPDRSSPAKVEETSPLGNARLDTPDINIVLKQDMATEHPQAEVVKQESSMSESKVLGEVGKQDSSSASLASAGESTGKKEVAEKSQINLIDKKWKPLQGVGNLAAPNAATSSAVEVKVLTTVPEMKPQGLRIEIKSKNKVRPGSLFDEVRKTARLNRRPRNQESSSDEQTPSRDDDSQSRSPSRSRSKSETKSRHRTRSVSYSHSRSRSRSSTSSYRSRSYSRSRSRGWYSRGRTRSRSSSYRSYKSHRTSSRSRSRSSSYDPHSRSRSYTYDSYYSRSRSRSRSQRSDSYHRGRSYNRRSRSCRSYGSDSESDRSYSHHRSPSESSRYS
UniProt Q8NHV4, whole entry, looked up: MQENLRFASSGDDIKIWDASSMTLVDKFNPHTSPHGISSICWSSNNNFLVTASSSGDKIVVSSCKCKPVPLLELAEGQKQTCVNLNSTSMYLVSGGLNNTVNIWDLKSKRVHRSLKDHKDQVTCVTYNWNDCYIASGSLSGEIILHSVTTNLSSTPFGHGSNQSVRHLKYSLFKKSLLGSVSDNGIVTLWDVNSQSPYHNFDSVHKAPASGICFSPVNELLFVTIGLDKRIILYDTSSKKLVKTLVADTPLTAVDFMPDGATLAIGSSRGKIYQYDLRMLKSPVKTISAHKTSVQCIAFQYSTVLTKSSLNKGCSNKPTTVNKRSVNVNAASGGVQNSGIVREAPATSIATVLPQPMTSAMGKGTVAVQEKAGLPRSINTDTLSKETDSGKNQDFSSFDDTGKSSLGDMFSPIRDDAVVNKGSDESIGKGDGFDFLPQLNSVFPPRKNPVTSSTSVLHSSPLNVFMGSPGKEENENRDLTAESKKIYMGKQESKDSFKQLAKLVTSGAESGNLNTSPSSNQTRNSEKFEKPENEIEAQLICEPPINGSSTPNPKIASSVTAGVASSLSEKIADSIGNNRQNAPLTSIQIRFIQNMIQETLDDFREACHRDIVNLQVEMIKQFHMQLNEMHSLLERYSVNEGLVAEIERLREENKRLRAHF
UniProt P23511, whole entry, looked up: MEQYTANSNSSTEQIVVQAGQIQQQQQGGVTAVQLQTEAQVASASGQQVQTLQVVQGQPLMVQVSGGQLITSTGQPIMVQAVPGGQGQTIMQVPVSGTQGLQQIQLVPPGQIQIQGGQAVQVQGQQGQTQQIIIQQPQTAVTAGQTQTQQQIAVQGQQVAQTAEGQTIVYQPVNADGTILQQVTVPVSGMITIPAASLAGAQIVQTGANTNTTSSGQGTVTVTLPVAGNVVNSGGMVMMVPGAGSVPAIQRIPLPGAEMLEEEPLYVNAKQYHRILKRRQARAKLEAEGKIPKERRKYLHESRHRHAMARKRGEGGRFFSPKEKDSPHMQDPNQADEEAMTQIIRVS
UniProt Q14934: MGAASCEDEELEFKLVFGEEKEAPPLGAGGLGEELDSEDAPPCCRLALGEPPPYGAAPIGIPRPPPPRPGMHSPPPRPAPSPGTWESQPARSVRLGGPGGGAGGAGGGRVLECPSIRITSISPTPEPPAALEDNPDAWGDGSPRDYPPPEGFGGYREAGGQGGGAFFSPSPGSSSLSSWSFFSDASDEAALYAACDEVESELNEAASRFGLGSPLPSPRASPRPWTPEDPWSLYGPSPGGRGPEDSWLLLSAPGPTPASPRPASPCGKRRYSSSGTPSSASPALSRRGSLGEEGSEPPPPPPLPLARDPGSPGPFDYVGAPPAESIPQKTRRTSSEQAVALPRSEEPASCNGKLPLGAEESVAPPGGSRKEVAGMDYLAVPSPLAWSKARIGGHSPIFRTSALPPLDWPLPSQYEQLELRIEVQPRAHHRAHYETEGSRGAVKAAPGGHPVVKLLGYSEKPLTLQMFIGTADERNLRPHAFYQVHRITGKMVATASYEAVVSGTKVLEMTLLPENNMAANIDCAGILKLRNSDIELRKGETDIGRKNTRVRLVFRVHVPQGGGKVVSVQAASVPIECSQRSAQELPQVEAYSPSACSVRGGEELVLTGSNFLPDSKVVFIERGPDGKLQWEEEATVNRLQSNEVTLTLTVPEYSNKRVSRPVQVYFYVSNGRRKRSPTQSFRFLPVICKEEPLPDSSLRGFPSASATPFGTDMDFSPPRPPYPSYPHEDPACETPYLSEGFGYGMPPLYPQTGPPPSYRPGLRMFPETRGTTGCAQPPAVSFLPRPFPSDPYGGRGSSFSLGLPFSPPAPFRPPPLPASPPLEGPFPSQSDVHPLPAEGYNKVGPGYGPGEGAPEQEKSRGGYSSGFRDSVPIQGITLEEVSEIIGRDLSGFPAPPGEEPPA
UniProt Q86UT6, whole entry, looked up: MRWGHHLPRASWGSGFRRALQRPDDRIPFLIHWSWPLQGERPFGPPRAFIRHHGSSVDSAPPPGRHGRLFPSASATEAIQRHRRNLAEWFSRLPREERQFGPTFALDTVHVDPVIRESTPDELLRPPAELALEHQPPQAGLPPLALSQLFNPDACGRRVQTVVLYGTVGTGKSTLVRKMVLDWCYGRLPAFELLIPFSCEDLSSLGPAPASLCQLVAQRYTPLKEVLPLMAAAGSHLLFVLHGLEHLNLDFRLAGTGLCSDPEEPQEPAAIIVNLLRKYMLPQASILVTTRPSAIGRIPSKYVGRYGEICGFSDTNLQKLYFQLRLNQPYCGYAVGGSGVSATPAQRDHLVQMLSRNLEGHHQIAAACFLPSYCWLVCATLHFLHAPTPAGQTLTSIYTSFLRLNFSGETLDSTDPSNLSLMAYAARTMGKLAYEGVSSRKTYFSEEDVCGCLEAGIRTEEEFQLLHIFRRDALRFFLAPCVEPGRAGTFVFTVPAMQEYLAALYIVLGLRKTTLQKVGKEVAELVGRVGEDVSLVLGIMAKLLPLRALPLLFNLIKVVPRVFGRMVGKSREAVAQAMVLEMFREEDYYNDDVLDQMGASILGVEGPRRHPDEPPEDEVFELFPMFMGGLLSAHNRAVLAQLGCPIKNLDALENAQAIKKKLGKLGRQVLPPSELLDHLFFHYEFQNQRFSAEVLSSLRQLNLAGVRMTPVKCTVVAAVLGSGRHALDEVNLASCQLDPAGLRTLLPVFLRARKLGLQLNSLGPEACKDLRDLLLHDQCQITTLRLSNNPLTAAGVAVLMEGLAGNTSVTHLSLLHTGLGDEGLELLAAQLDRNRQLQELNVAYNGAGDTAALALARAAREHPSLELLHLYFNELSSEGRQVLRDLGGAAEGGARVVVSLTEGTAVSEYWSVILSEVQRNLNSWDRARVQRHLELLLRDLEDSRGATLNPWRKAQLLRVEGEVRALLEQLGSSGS
UniProt O15226: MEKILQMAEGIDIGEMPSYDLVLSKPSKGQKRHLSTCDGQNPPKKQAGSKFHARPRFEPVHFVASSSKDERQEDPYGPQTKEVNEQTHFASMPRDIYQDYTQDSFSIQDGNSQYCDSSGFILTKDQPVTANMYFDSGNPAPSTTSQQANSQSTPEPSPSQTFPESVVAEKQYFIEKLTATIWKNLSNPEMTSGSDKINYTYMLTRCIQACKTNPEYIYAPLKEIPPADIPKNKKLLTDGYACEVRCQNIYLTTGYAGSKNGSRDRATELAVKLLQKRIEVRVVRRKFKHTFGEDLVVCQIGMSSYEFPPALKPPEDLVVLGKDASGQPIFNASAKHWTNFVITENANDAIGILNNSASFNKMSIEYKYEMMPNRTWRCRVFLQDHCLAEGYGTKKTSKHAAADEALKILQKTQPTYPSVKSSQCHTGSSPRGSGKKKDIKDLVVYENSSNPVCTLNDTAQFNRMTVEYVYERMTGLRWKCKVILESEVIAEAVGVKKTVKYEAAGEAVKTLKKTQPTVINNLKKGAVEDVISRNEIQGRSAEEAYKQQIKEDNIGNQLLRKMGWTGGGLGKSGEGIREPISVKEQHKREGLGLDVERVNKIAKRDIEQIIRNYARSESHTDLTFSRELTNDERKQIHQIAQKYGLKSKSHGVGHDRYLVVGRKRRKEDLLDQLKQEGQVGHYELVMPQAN
UniProt Q96JN8: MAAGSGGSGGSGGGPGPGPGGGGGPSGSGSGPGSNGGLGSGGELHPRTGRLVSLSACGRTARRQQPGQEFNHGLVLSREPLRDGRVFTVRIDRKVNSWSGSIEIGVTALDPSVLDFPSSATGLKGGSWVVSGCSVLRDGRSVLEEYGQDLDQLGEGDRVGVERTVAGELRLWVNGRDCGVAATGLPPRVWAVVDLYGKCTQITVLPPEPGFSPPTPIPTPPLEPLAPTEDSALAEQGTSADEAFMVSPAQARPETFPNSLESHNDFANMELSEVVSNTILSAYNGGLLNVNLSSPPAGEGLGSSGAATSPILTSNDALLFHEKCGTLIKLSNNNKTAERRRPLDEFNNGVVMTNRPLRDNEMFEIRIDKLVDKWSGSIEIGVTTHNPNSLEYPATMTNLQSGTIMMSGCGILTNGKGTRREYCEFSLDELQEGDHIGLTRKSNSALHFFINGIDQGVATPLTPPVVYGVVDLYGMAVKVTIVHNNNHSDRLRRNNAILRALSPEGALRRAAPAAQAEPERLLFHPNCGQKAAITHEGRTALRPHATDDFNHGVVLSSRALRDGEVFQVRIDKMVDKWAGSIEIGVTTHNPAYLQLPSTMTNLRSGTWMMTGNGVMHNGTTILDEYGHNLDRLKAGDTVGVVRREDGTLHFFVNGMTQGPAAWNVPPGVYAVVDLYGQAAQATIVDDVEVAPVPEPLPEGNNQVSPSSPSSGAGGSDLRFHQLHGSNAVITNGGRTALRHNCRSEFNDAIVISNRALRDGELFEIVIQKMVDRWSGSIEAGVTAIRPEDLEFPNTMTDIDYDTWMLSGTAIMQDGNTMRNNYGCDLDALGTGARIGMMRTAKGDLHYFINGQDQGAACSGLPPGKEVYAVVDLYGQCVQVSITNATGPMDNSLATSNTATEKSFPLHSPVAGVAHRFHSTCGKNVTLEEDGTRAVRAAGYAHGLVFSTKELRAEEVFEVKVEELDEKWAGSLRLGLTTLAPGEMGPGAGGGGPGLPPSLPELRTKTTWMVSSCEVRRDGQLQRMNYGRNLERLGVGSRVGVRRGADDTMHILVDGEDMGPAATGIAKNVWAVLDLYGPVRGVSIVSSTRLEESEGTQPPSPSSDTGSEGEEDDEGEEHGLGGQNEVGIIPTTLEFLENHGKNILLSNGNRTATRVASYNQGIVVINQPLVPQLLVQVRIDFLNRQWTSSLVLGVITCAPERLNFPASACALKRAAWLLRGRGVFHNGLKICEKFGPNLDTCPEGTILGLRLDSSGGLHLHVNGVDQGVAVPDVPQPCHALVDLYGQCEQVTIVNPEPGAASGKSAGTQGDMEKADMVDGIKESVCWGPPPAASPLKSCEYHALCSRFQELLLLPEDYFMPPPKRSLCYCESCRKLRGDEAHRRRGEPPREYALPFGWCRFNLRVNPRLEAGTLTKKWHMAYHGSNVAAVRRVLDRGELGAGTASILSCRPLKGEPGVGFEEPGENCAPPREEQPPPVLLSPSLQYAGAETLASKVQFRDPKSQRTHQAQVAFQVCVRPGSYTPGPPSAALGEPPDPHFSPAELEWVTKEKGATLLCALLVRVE

How the values were obtained:
Assay in all cases: log2 fold change, soluble protein after heating vs DMSO (PISA); higher = thermal stabilisation; K562 lysate, 10 uM; active = over 0.2 and 3.5 SD of the protein, either way, in both replicates (recomputed)
ibrutinib = compound: C=CC(=O)N1CCC[C@@H](n2nc(-c3ccc(Oc4ccccc4)cc3)c3c(N)ncnc32)C1 [ibrutinib]
Outline: (§1)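 Values give the log-two fold change in thermal stability against solvent controls, from duplicates. Crude K562 extract at 1 mg/mL protein, made by dounce homogenisation in PBS pH 7.4 with 1 mM MgCl2, was treated with 10 μM compound for 30 min. After 3 min heating across 48°C-58°C, aliquots were pooled, adjusted to 0.5% NP-40 at 4°C and centrifuged at 21,000xg for 90 min. The supernatant was measured by TMTpro 16plex LC-MS/MS with channel sums equalised.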

[1] = compound: CC(=O)c1cnc2ccc(-c3cc(Cl)c(O)c(Cl)c3)nc2c1N[C@H]1CC[C@H](CN(C)C)CC1
Outline: as §1

ralimetinib = compound: CC(C)(C)Cn1c(N)nc2ccc(-c3[nH]c(C(C)(C)C)nc3-c3ccc(F)cc3)nc21 [ralimetinib]
Outline: as §1

[2] = compound: CC(C)(O)CC(=O)NCCn1ccc2ncnc(Nc3ccc(Oc4cccc(C(F)(F)F)c4)c(Cl)c3)c21
Outline: as §1

[3] = compound: CC(C)C1=C2N=C(C=C(N2N=C1)NCC3=CC=CC=C3)NCCCCCCN
Outline: as §1

[4] = compound: CC1=C(C(CC(=O)N1)C2=CC=C(C=C2)C(F)(F)F)C(=O)NC3=C(C=C4C(=C3)C=NN4)F
Outline: as §1

[5] = compound: CC1=C(C2=C(C=C1)C(=O)C3=CC=CC=C3N2CCCN)C
Outline: as §1

[6] = compound: CC1=C(C=C(C=C1)NC(=O)C2=CC(=CC=C2)C(C)(C)C#N)NC3=CC4=C(C=C3)N=CN(C4=O)C
Outline: as §1

[7] = compound: CC1=C(C=C(C=C1)NC(=O)C2=CC(=CC=C2)N(C)C)NC(=O)C3=CC=C(C=C3)O
Outline: as §1

[8] = compound: CC1=CC=C(C=C1)SC2=C3C=C(SC3=CN=C2)C(=O)N
Outline: as §1

vemurafenib = compound: CCCS(=O)(=O)Nc1ccc(F)c(C(=O)c2c[nH]c3ncc(-c4ccc(Cl)cc4)cc23)c1F [vemurafenib]
Outline: as §1

[9] = compound: CCCS(=O)(=O)Nc1ccc(F)c(C(=O)c2c[nH]c3ncc(Cl)cc23)c1F
Outline: as §1

barasertib = compound: CCN(CCCOc1ccc2c(Nc3cc(CC(=O)Nc4cccc(F)c4)[nH]n3)ncnc2c1)CCOP(=O)(O)O [barasertib]
Outline: as §1

[10] = compound: CC[C@@H]1C(=O)N(C)c2cnc(Nc3ccc(C(=O)NC4CCN(C)CC4)cc3OC)nc2N1C1CCCC1
Outline: as §1

volasertib = compound: CC[C@@H]1C(=O)N(C)c2cnc(Nc3ccc(C(=O)N[C@H]4CC[C@H](N5CCN(CC6CC6)CC5)CC4)cc3OC)nc2N1C(C)C [volasertib]
Outline: as §1

[11] = compound: CCn1c(C(=O)N(C2CC2)C2CC2)cc2c3c(ncn3C)c(Nc3cc(C)n(C)n3)nc21
Outline: as §1

[12] = compound: CCn1cc(-c2ccnc3[nH]c(-c4cccc(CN(C)C)c4)cc23)c(-c2ccc(NC(=O)N(C)C)cc2)n1
Outline: as §1

[13] = compound: CN1CCC(CNc2ccc3ncc(-c4cccc(OC(F)(F)F)c4)n3n2)CC1
Outline: as §1

saracatinib = compound: CN1CCN(CCOc2cc(OC3CCOCC3)c3c(Nc4c(Cl)ccc5c4OCO5)ncnc3c2)CC1 [saracatinib]
Outline: as §1

sotrastaurin = compound: CN1CCN(c2nc(C3=C(c4c[nH]c5ccccc45)C(=O)NC3=O)c3ccccc3n2)CC1 [sotrastaurin]
Outline: as §1

Measured: log2 fold change

NIT2 (UniProt Q9NQR4)
inactive: ibrutinib 0.026 | [1] 0.014 | ralimetinib -0.038 | [2] -0.041 | [3] 0.014 | [4] 0.017 | [5] 0.014 | [6] 0.017 | [7] 0.019 | [8] 0 | vemurafenib -0.003 | [9] 0.005 | barasertib -0.008 | [10] 0.005 | volasertib -0.004 | [11] -0.004 | [12] 0.02 | [13] -0.013 | saracatinib -0.008 | sotrastaurin -0.012

NKTR (UniProt P30414)
inactive: ibrutinib 0.085 | [1] -0.114 | ralimetinib -0.143 | [2] 0.019 | [3] 0.057 | [4] 0.028 | [5] -0.203 | [7] 0.025 | [8] -0.072 | vemurafenib 0.033 | [9] -0.064 | barasertib 0.099 | [10] 0.18 | volasertib 0.029 | [11] -0.05 | [12] -0.346 | [13] 0.476 | saracatinib 0.056

NEDD1 isoform 3 (UniProt Q8NHV4)
inactive: ibrutinib 0.016 | [1] -0.036 | ralimetinib -0.019 | [2] -0.01 | [3] -0.017 | [4] 0.017 | [5] 0.034 | [6] -0.03 | [7] 0.029 | [8] -0.005 | vemurafenib -0.02 | [9] 0.008 | barasertib 0.038 | [10] 0.071 | volasertib -0.002 | [11] 0.01 | [12] 0.02 | [13] 0.012 | saracatinib 0.051 | sotrastaurin 0.03

NFIA isoform 4 (UniProt Q12857)
inactive: ibrutinib 0.089 | [1] -0.015 | ralimetinib 0.032 | [2] -0.085 | [3] 0.082 | [4] 0.016 | [5] -0.191 | [6] -0.052 | [7] 0.023 | [8] -0.07 | vemurafenib -0.03 | [9] 0.02 | barasertib -0.053 | volasertib 0.053 | [11] 0.025 | [12] -0.041 | [13] 0.1 | saracatinib 0.12 | sotrastaurin -0.039

NDST2 (UniProt P52849)
inactive: ibrutinib 0.003 | [1] 0.055 | ralimetinib 0.025 | [2] 0.048 | [3] 0.016 | [4] 0.002 | [5] -0.026 | [6] -0.028 | [7] 0.019 | [8] -0.075 | vemurafenib 0.144 | [9] 0.175 | barasertib -0.059 | [10] -0.416 | volasertib -0.144 | [11] 0.183 | [12] -0.096 | [13] 0.047 | saracatinib -0.088 | sotrastaurin -0.087

NFYA (UniProt P23511)
inactive: ibrutinib 0.077 | [1] -0.046 | ralimetinib -0.014 | [2] 0 | [3] 0.071 | [5] 0.027 | [6] 0.022 | [7] -0.131 | [8] -0.076 | vemurafenib 0.047 | [9] 0.007 | barasertib 0.023 | [10] 0.088 | volasertib 0.057 | [11] -0.037 | [12] -0.07 | [13] 0.004 | saracatinib -0.026 | sotrastaurin 0.02

NEB isoform 3 (UniProt P20929)
inactive: ibrutinib -0.05 | [1] -0.026 | ralimetinib 0.022 | [2] -0.25 | [3] 0.024 | [4] -0.062 | [5] -0.026 | [6] 0.05 | [7] -0.026 | [8] 0.099 | vemurafenib 0.126 | [9] -0.065 | barasertib 0 | volasertib 0.002 | [11] -0.153 | [12] -0.226 | [13] 0.333 | saracatinib 0.028 | sotrastaurin 0.036

NFATC4 isoform 2 (UniProt Q14934)
inactive: ibrutinib -0.053 | [1] -0.075 | [4] -0.067 | [5] -0.057 | [6] 0.125 | [8] -0.063 | vemurafenib 0.081 | [9] -0.013 | barasertib 0.059 | [10] -0.05 | volasertib -0.004 | [12] 0.053 | [13] 0.068 | saracatinib 0.044 | sotrastaurin 0.026

NLRX1 (UniProt Q86UT6)
inactive: [3] -0.016 | vemurafenib 0.101 | [10] 0.064 | [12] 0.321 | [13] -0.157

NFAT5 isoform 4 (UniProt O94916)
inactive: ibrutinib -0.016 | [6] 0.088 | barasertib -0.039 | sotrastaurin 0

NDUFA7 (UniProt M0R0N0)
inactive: ibrutinib 0 | barasertib 0.016 | [12] -0.966 | [13] 0.442

Quoted from above (2 entries):
NEB isoform 3 (UniProt P20929)
inactive: ibrutinib -0.05 | [1] -0.026 | ralimetinib 0.022 | [2] -0.25 | [3] 0.024 | [4] -0.062 | [5] -0.026 | [6] 0.05 | [7] -0.026 | [8] 0.099 | vemurafenib 0.126 | [9] -0.065 | barasertib 0 | volasertib 0.002 | [11] -0.153 | [12] -0.226 | [13] 0.333 | saracatinib 0.028 | sotrastaurin 0.036

NFATC4 isoform 2 (UniProt Q14934)
inactive: ibrutinib -0.053 | [1] -0.075 | [4] -0.067 | [5] -0.057 | [6] 0.125 | [8] -0.063 | vemurafenib 0.081 | [9] -0.013 | barasertib 0.059 | [10] -0.05 | volasertib -0.004 | [12] 0.053 | [13] 0.068 | saracatinib 0.044 | sotrastaurin 0.026

Continuation.

NKRF isoform 2 (UniProt O15226)
inactive: [1] 0.057 | ralimetinib 0.09 | [2] 0.008 | [3] -0.066 | [4] 0.048 | [5] -0.078 | [6] -0.076 | [7] -0.071 | [8] -0.029 | vemurafenib -0.01 | [9] 0.089 | [10] -0.023 | volasertib 0.015 | [11] -0.055 | [12] -0.016 | [13] -0.116 | saracatinib -0.043 | sotrastaurin 0.063

NEURL4 (UniProt Q96JN8)
inactive: [1] -0.096 | [3] -0.016 | [5] 0 | [6] 0.013 | [8] 0.048 | vemurafenib -0.095 | [9] 0.051 | [10] -0.092 | volasertib -0.006 | [12] -0.03 | [13] -0.017 | saracatinib -0.292 | sotrastaurin 0.094

NIN isoform 7 (UniProt Q8N4C6)
inactive: [1] 0.09 | ralimetinib 0.071 | [2] -0.043 | [3] -0.065 | [6] -0.104 | [7] 0.011 | [8] -0.086 | [9] 0.069 | volasertib 0.063 | [11] 0.075 | [12] 0.032 | [13] 0.022 | sotrastaurin 0.022

NDRG2 (UniProt G3V2A6)
inactive: ibrutinib 0.232 | [1] -0.027 | [4] 0.161 | [8] -0.017 | [9] 0.033 | barasertib 0.393 | volasertib 0.04

NFIL3 (UniProt Q16649)
inactive: [1] 0.493 | ralimetinib 0.004 | [2] 0.004 | [4] -0.084 | [7] 0 | [8] -0.155 | [9] -0.058 | [10] 0.082 | volasertib -0.305 | [11] 0.087
